This passage reports z-score results from PubChem BioAssay AID1508600 (Functional Genomics Laboratory (NCATS/FGL), 2020).

Screen size: about 53,000 sequences; about 3,700 (7%) were called active.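 How the source made its calls: active means gene knockdowns whose robust z-score for IL-1 alpha signal is at least 2 or at most -2, so actives lie on both sides; inactive means the rest.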 The list shows a part of the results.

The nature of this assay: Components of the Cytosolic LPS Sensing Pathway: Gene Identification via Genome-wide siRNA Screen.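 Further: robust z of the log signal after scaling to non-targeting control siRNA wells of the plate.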 The note with it: RAW264.7 macrophages, IL-1a HTRF, actives lie on both sides, screened at 100 nM (by protocol), cells primed 5 h with Pam3CSK4 first. Summed up: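 Read-out: IL-1a HTRF on supernatant, divided by plate negative-control median ×100, log-transformed and converted to robust z-score. Cells were RAW264.7 given 100 nM siRNA, Pam3CSK4-primed 5 hours, then LipidA-transfected 24 hour.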
Regarding GGGAUCUAAGAAAGCCAUCTT against H2bc3, the z-score is inactive: 0.429. Take GGACUGCUGAACUUGCUCATT against Ccdc28b: the z-score is inactive: -1.23. Turning to GGAGAGAUGAUACUGUUGGTT against Olfr1295, the z-score is inactive: -0.197. Regarding GCAUGCUAGAAGCUAAAAATT against Golga3, the z-score is inactive: 1.48. With GGGCUACAAGAAAAAGUAUTT against Krt85, the z-score was active: 2.69. The result for GGAGAACGAGUUGUAUAGCTT against Dok2 reads inactive: -0.391; that for GGGCUUAUCUAUGUCCUUCTT against Olfr59, inactive: 0.901. As to GCGAGUGAUAAGACAGCCATT against Map6d1, the z-score was inactive: 0.783.

As for GCAAGCUUAUAUGUUUGACTT against Ggh, the z-score was inactive: 1.06.

For CCGUGAUAACAACAUUUGUTT against Olfr750, the z-score was inactive: -0.833. With GGAGAGAAACUGCGUGUAATT against Sla, the z-score was inactive: 1.46. Under CCCGAACAGAGGAUCGAAATT against Cxadr stands inactive: 0.071; under GCCCAAACAUAUUAAACUUTT against Ubap2, inactive: 0.416; under GCAACUCAGCUGUUGUGAGTT against Ifitm2, active: 2.99. GGGAGGUUCCUAUUGAAGGTT against Unc5d: the z-score is inactive: -0.304. Consider GGAACAUAGAUGCGUGUGGTT against Rprm, for which the z-score is inactive: -0.913. Regarding “CCUUAGAGAGUAUGAUUAUTT against 4933405O20Rik”, the z-score was inactive: 1.17. Regarding GGUCUUCUAUAUCCUGUGCTT against Fbxo6, the z-score was inactive: -0.823. Consider GGGCUCAGAGACAAACUGUTT against Tnr, for which the z-score was inactive: 1.6. Turning to GGGUCAUUCUGUUACUCUUTT against Taar7a, the z-score was inactive: 1.17. In the case of CCUUCUAGUACAAAAGUUGTT against Jmjd1c, the z-score was inactive: 1.32. The result for GGUGAUGAUGAUGGGCAACTT against Cdkn2a reads active: 2.02; that for CGGAUUACUUUGUAAAGAUTT against Il17rd, inactive: 0.838; that for CGAGGAGCCUGAAAUAUGGTT against Exosc2, active: -2.42. On to GGCAUUUGACCCAGAAGACTT against Cdhr3, for which the z-score is inactive: 0.652.

Take GGGAAUAUGUGAAACAGACTT against Syk: the z-score is inactive: -0.229.

With GGGCAGACCUAAUAGCUUATT against Cycs, the z-score is inactive: 0.707. GGAGAGUCACUGUUGAUGGTT against Sumf1: the z-score is inactive: -0.292. For GCACGGUCAGUUCUGUGAUTT against Fbxl6, the z-score is inactive: -1.54.

On to GGAAGUGGACUACUUCUUCTT against Olfr1511, for which the z-score is inactive: -0.516. The result for GGUGAAAAAGUCUGACUGUTT against Ptn reads inactive: -0.21; that for GGGCUUCUUUGCCACACUUTT against Rho, inactive: 0.761; that for GGUACCUAUGCCAGUUUUGTT against Aqp12, active: 2.89. Turning to CCCUGUUAAGGAAUGCAAATT against Chil1, the z-score is inactive: 0.367. For the sequence GGGUGAAUUUUGUUUUUGUTT against Kcnj14, the z-score is active: 3.05. With CCUUGCACUCAGUCCAUGATT against Gatc, the z-score is inactive: 0.132. As for GGACAGAAUCCUCUCCAGGTT against Tas1r1, the z-score was inactive: -0.531. The result for GGCAUCUUAUGGCCUAAAATT against Rnf31 reads inactive: -1.08. GGAGAAGAAUUCUUACAGGTT against Fbxo16: the z-score was inactive: 0.468. With GGCGAGUUUUAUGUCAUUGTT against Fxr1, the z-score is inactive: 0.422. Regarding GGUUGGAAUUGUGCAAUAATT against Fbxo48, the z-score was inactive: 0.164.

For the sequence GGAGAAACGCAAGAAACGUTT against Zrsr1, the z-score is inactive: -0.28. Under GGAGAUACCGGGAAUCCAATT against Rpl19 stands inactive: 0.146. GGCGAGAGAGAUGAGUAAATT against Smim3: the z-score is inactive: -1.63. Take GGGUAAAUAUGUGGAAAACTT against Zfp503: the z-score is inactive: -0.283. As to CCUCAUUGUUUUAUACCCUTT against Olfr1140, the z-score is inactive: 0.309. Consider GGAACAUAUUUAUUGGUGATT against Nipal2, for which the z-score is inactive: 0.372. For CGUGCAGAGGUGGUACCAATT against Nsun5, the z-score is inactive: 0.0204. Turning to CCUUGCCUUUACUACCAGUTT against Olfr15, the z-score was inactive: -0.187.

In the case of GUGGCUAUCGGCACAACAUTT against Gpha2, the z-score was inactive: 0.604.

In the case of GGAAGGUACUCUGAUGGAATT against Ptpn13, the z-score is inactive: 1.36.

Turning to GGAACUACCUCUUCAGACUTT against Sema5b, the z-score is inactive: 0.756. Consider CCGCUUCCAUCACAACAGUTT against Zc3hav1, for which the z-score is inactive: -0.819. For GCCAACAAUUACGUAUCAATT against Papolg, the z-score is inactive: 0.755. The result for GUAGUAGUCCUAGGUCUACTT against Spag8 reads inactive: 0.936; that for CCUGGUUAAAGGUUAUCCATT against Commd7, inactive: -3.9e-05. For GGCCUUUCUGGAGAAGAUGTT against Stfa3, the z-score is inactive: -0.526. With CGUUCAUAAUGACUCCGUUTT against Slc39a10, the z-score is inactive: 1.78. Consider GGGCAAAUGAUAUAAGGAUTT against Ndufa12, for which the z-score was inactive: -0.585. As for GGAAUUUGUUCUCUUAUCGTT against Anapc1, the z-score is inactive: -0.541. The result for CCUAUAUCAUCAUGGUUUGTT against Tmx1 reads active: 2.4; that for GGACAAAGUGGUUAUGUGGTT against Rims1, inactive: -1.84.

Turning to GAUGUACGAGAGCUUAGCATT against Uqcc2, the z-score was inactive: -1.14. For GCUAUAGUUACUAAACUACTT against Flt1, the z-score is inactive: -0.0427. GGACGUGUUCGGAAACCUATT against Psmc3ip: the z-score is inactive: 0.134. Regarding GGAGCAGUAUAUCCUACAUTT against Olfr510, the z-score was active: 2.82. With GCUAAUCCAGGACUGUUUATT against Trim14, the z-score was inactive: -1.66. Consider CGGUGCGAUCUCUCAAAGUTT against Cryba4, for which the z-score was active: 2.97. Under GGAAGAAAAACUGAAGAGATT against Ctsr stands inactive: 0.63.

For the sequence GGAAAUGAGUCAACUGUACTT against Pappa, the z-score was inactive: 0.0401. For GCUCAUGGAUACGUCACUATT against Map2k6, the z-score is inactive: -0.975. Under CCAAUAACUCUAAAUAGGCTT against Trhr stands inactive: 0.308; under GCUUCGUGUGCUUUACCUGTT against Lrrc24, inactive: 0.503.

With GCAAUAUGUGACAAACUUCTT against Ptpn22, the z-score was active: 2.06. Turning to GGUAAUCGUGUAUUCAUAUTT against Dph5, the z-score was inactive: -0.327. On to GCAGACGAGUACCUAGAAATT against Gbp7, for which the z-score is inactive: -0.334. With GGUCAAACACAGUUCAAAGTT against Poglut3, the z-score is inactive: 1.75. As to GGAAGAGUGCGUUUACCUUTT against Rrp12, the z-score is inactive: 0.388. The result for GCUCACAAUGCUACAUCAATT against Fam178b reads inactive: 0.0528. For the sequence GCCAGGUCUGAAGAACUGUTT against Rap1b, the z-score is inactive: -0.261. Consider GGUUUGGCAGAAGUGCAUGTT against Npff, for which the z-score is inactive: -0.801. On to GCACUCUCUACUCUAUUAATT against Ackr2, for which the z-score was active: 2.68. As for GCACAACCAAUUACGUGGCTT against Gpnmb, the z-score was inactive: -0.149.

As to UGCCAUGAGUCAGCUUUUGTT against Olfr1301, the z-score was inactive: -0.536. With GGUCCCAUUCAGUGUGUGUTT against Cdk10, the z-score is active: 2.98. In the case of GGCUUACUUCCAAAGACUUTT against Naalad2, the z-score was inactive: 0.0534. For GGAUUCCAGAACAAACACATT against Plekhb2, the z-score is inactive: -1.36. For GGAGAAGAAGACCAAUGAGTT against Rabgef1, the z-score was inactive: -1.35.

For CCCUAUACGACUAGCUCUGTT against Tmprss11f, the z-score was inactive: -0.48. Regarding GCGAUUGGCCCAAAAAUGCTT against Olfr1151, the z-score was inactive: 0.225.

For CCCACCUCAACAUGAGAACTT against Gsdme, the z-score is inactive: 0.605. Take GGGUGUACCUUAUGUAUUATT against Prpf4: the z-score is inactive: 1.03. As to GGAAACUGUUGAAUCUUGUTT against Smad5, the z-score was inactive: 1.42.

Turning to CCUACUUGAGGUUCAUCGUTT against Zmynd11, the z-score was inactive: 0.591. Regarding GCAUGAUUUAGAUCGAGUATT against Uqcrfs1, the z-score was inactive: -0.268. In the case of CCAGUUUGGUAAUCAUGAATT against Cyb561d2, the z-score is inactive: -0.244. The result for CCUGGCCGUCAUAGAUCUCTT against Olfr464 reads inactive: -0.0808; that for GGGAAAUCUUCAUUUCUUUTT against Nsd1, inactive: 0.153.

Consider GCUAGCAACAUCUUGGGCATT against Cntn2, for which the z-score was inactive: 0.849. For “GGAUGAUCACAAAGGUAUATT against 4632404H12Rik”, the z-score is inactive: 0.0665. Regarding GGUUCGACGAAGAUCAGAGTT against Akap1, the z-score is inactive: -0.634.

In the case of GCAAAAUAGAUCAGUAUUCTT against Gabra6, the z-score is inactive: 0.516. With GGGUAUGCUCAUCAUGCUGTT against Mfsd7a, the z-score was inactive: -1.69. On to GGAGAUGUGUCCUUGACGATT against Havcr1, for which the z-score was inactive: -0.0613. Consider GCUGCAUUUUUUGGCAGAGTT against Dennd2d, for which the z-score was inactive: -1.42.

Consider CCGAAGCAUGAAGAAUCUATT against Tubd1, for which the z-score is inactive: 0.544. As for GGGUGAGAUGAAAUGCAUCTT against Efemp2, the z-score is inactive: 0.264.
